# In the supplement of paper PMC8728848:
# The list shows a part of the results.
# B1: Thrombomodulin Extracellular (Mus musculus), P15306 (protein)
# chain: MLGIFFLGVLAPASLGLSALAKLQPTGSQCVEHECFALFQGPATFLDASQACQRLQGHLMTVRSSVAADVISLLLSQSSMDLGPWIGLQLPQGCDDPVHLGPLRGFQWVTGDNHTSYSRWARPNDQTAPLCGPLCVTVSTATEAAPGEPAWEEKPCETETQGFLCEFYFTASCRPLTVNTRDPEAAHISSTYNTPFGVSGADFQTLPVGSSAAVEPLGLELVCRAPPGTSEGHWAWEATGAWNCSVENGGCEYLCNRSTNEPRCLCPRDMDLQADGRSCARPVVQSCNELCEHFCVSNAEVPGSYSCMCETGYQLAADGHRCEDVDDCKQGPNPCPQLCVNTKGGFECFCYDGYELVDGECVELLDPCFGSNCEFQCQPVSPTDYRCICAPGFAPKPDEPHKCEMFCNETSCPADCDPNSPTVCECPEGFILDEGSVCTDIDECSQGECFTSECRNFPGSYECICGPDTALAGQISKDCDPIPVREDTKEEEGSGEPPVSPTPGSPTGPPSARPVHSGVLIGISIASLSLVVALLALLCHLRKKQGAARAELEYKCASSAKEVVLQHVRTDRTLQKF
# Legend:
# Test in all cases: glycan array binding signal (z-score within array); higher = stronger binding
# Details in all cases: glycan notation: IUPAC condensed, linker removed
# [1] = biological target: Neu5Ac(a2-6)Gal(b1-4)GlcNAc(b1-3)Gal(b1-4)GlcNAc(b1-3)GalNAc
# Summary of the method: (§1)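 Columns mapping to the same glycan were averaged after glycan names were converted to IUPAC-condensed notation. The data come from 3228 arrays in the Consortium for Functional Glycomics database, limited to those with an available protein sequence. Binding is reported as a within-array Z-score averaged across arrays of one protein sequence and across linkers.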
# [2] = biological target: Neu5Ac(a2-6)Gal(b1-4)GlcNAc(b1-3)Gal(b1-4)GlcNAc(b1-3)[Neu5Ac(a2-6)Gal(b1-4)GlcNAc(b1-3)Gal(b1-4)GlcNAc(b1-6)]GalNAc
# Summary of the method: as §1
# [3] = biological target: Neu5Ac(a2-6)Gal(b1-4)GlcNAc(b1-3)Gal(b1-4)GlcNAc(b1-6)[Gal(b1-3)]GalNAc
# Summary of the method: as §1
# [4] = biological target: Neu5Ac(a2-6)Gal(b1-4)GlcNAc(b1-3)Gal(b1-4)[Fuc(a1-3)]GlcNAc(b1-3)Gal(b1-4)[Fuc(a1-3)]GlcNAc
# Summary of the method: as §1
# [5] = biological target: Neu5Ac(a2-6)Gal(b1-4)GlcNAc(b1-3)GalNAc
# Summary of the method: as §1
# [6] = biological target: Neu5Ac(a2-6)Gal(b1-4)GlcNAc(b1-3)[Neu5Ac(a2-6)Gal(b1-4)GlcNAc(b1-6)]GalNAc
# Summary of the method: as §1
# [7] = biological target: Neu5Ac(a2-6)Gal(b1-4)GlcNAc(b1-6)GalNAc
# Summary of the method: as §1
# [8] = biological target: Neu5Ac(a2-6)Gal(b1-4)GlcNAc(b1-6)[Gal(b1-3)GlcNAc(b1-3)]Gal(b1-4)Glc
# Summary of the method: as §1
# [9] = biological target: Neu5Ac(a2-6)Gal(b1-4)GlcNAc(b1-6)[Gal(b1-3)]GalNAc
# Summary of the method: as §1
# [10] = biological target: Neu5Ac(a2-6)Gal(b1-4)GlcNAc6S
# Summary of the method: as §1
# Neu5Ac(a2-6)GalNAc = biological target: Neu5Ac(a2-6)GalNAc
# Summary of the method: as §1
# [11] = biological target: Neu5Ac(a2-6)GalNAc(b1-4)GlcNAc
# Summary of the method: as §1
# [12] = biological target: Neu5Ac(a2-6)GalNAc(b1-4)GlcNAc6S
# Summary of the method: as §1
# [13] = biological target: Neu5Ac(a2-6)GlcNAc(b1-4)GlcNAc
# Summary of the method: as §1
# [14] = biological target: Neu5Ac(a2-6)GlcNAc(b1-4)GlcNAc(b1-4)GlcNAc
# Summary of the method: as §1
# Neu5Ac(a2-8)Neu5Ac = biological target: Neu5Ac(a2-8)Neu5Ac
# Summary of the method: as §1
# [15] = biological target: Neu5Ac(a2-8)Neu5Ac(a2-3)Gal(b1-3)GalNAc(b1-4)[Neu5Ac(a2-3)]Gal(b1-4)Glc
# Summary of the method: as §1
# [16] = biological target: Neu5Ac(a2-8)Neu5Ac(a2-3)Gal(b1-3)GalNAc(b1-4)[Neu5Ac(a2-8)Neu5Ac(a2-3)]Gal(b1-4)Glc
# Summary of the method: as §1
# [17] = biological target: Neu5Ac(a2-8)Neu5Ac(a2-3)Gal(b1-4)Glc
# Summary of the method: as §1
# [18] = biological target: Neu5Ac(a2-8)Neu5Ac(a2-3)Gal(b1-4)GlcNAc
# Summary of the method: as §1
# [19] = biological target: Neu5Ac(a2-8)Neu5Ac(a2-3)[Gal(b1-3)GalNAc(b1-4)]Gal(b1-4)Glc
# Summary of the method: as §1
# [20] = biological target: Neu5Ac(a2-8)Neu5Ac(a2-3)[GalNAc(b1-4)]Gal(b1-4)Glc
# Summary of the method: as §1
# [21] = biological target: Neu5Ac(a2-8)Neu5Ac(a2-8)Neu5Ac
# Summary of the method: as §1
# [22] = biological target: Neu5Ac(a2-8)Neu5Ac(a2-8)Neu5Ac(a2-3)Gal(b1-4)Glc
# Summary of the method: as §1
# [23] = biological target: Neu5Ac(a2-8)Neu5Ac(a2-8)Neu5Ac(a2-3)[Gal(b1-3)GalNAc(b1-4)]Gal(b1-4)Glc
# Summary of the method: as §1
# [24] = biological target: Neu5Ac(a2-8)Neu5Ac(a2-8)Neu5Ac(a2-3)[GalNAc(b1-4)]Gal(b1-4)Glc
# Summary of the method: as §1
# [25] = biological target: Neu5Ac(a2-8)Neu5Ac(a2-8)Neu5Ac(a2-8)Neu5Ac(a2-3)[GalNAc(b1-4)]Gal(b1-4)Glc
# Summary of the method: as §1
# [26] = biological target: Neu5Ac(a2-8)Neu5Gc(a2-3)Gal(b1-4)GlcNAc
# Summary of the method: as §1
# [27] = biological target: Neu5Ac(b2-6)Gal(b1-4)GlcNAc
# Summary of the method: as §1
# Neu5Ac(b2-6)GalNAc = biological target: Neu5Ac(b2-6)GalNAc
# Summary of the method: as §1
# [28] = biological target: Neu5Ac9Ac(a2-3)Gal(b1-3)GlcNAc
# Summary of the method: as §1
# [29] = biological target: Neu5Ac9Ac(a2-3)Gal(b1-4)GlcNAc
# Summary of the method: as §1
# [30] = biological target: Neu5Ac9Ac(a2-6)Gal(b1-4)GlcNAc
# Summary of the method: as §1
# [31] = biological target: Neu5Gc(a2-3)Gal(b1-3)GlcNAc
# Summary of the method: as §1
# [32] = biological target: Neu5Gc(a2-3)Gal(b1-3)[Fuc(a1-4)]GlcNAc
# Summary of the method: as §1
# Neu5Gc(a2-3)Gal(b1-4)Glc = biological target: Neu5Gc(a2-3)Gal(b1-4)Glc
# Summary of the method: as §1
# [33] = biological target: Neu5Gc(a2-3)Gal(b1-4)GlcNAc
# Summary of the method: as §1
# [34] = biological target: Neu5Gc(a2-3)Gal(b1-4)GlcNAc(b1-3)Gal(b1-4)GlcNAc(b1-2)Man(a1-3)[Neu5Gc(a2-3)Gal(b1-4)GlcNAc(b1-3)Gal(b1-4)GlcNAc(b1-2)Man(a1-6)]Man(b1-4)GlcNAc(b1-4)GlcNAc
# Summary of the method: as §1
# [35] = biological target: Neu5Gc(a2-3)Gal(b1-4)[Fuc(a1-3)]GlcNAc
# Summary of the method: as §1
# [36] = biological target: Neu5Gc(a2-6)Gal(b1-4)GlcNAc
# Summary of the method: as §1
# Neu5Gc(a2-6)GalNAc = biological target: Neu5Gc(a2-6)GalNAc
# Summary of the method: as §1
# [37] = biological target: Neu5Gc(a2-8)Neu5Ac(a2-3)Gal(b1-4)GlcNAc
# Summary of the method: as §1
# [38] = biological target: Neu5Gc(a2-8)Neu5Gc(a2-3)Gal(b1-4)GlcNAc
# Summary of the method: as §1
# [39] = biological target: Neu5Gc(a2-8)Neu5Gc(a2-3)Gal(b1-4)GlcNAc(b1-3)Gal(b1-4)GlcNAc
# Summary of the method: as §1
# [40] = biological target: Neu5Gc(a2-8)Neu5Gc(a2-6)Gal(b1-4)GlcNAc
# Summary of the method: as §1
# [41] = biological target: Neu5Gc(b2-6)Gal(b1-4)GlcNAc
# Summary of the method: as §1
binder,measurement,setting,value
B1,glycan array binding signal (z-score),[1],1.04
same,glycan array binding signal (z-score),[2],0.769
same,glycan array binding signal (z-score),[3],0.53
same,glycan array binding signal (z-score),[4],-0.473
same,glycan array binding signal (z-score),[5],-0.577
same,glycan array binding signal (z-score),[6],0.106
same,glycan array binding signal (z-score),[7],1.06
same,glycan array binding signal (z-score),[8],2.01
same,glycan array binding signal (z-score),[9],-1.23
same,glycan array binding signal (z-score),[10],-1.45
same,glycan array binding signal (z-score),Neu5Ac(a2-6)GalNAc,-1.01
same,glycan array binding signal (z-score),[11],-1.52
same,glycan array binding signal (z-score),[12],-1.36
same,glycan array binding signal (z-score),[13],0.044
same,glycan array binding signal (z-score),[14],0.539
same,glycan array binding signal (z-score),Neu5Ac(a2-8)Neu5Ac,-0.374
same,glycan array binding signal (z-score),[15],-0.487
same,glycan array binding signal (z-score),[16],1.32
same,glycan array binding signal (z-score),[17],-1.26
same,glycan array binding signal (z-score),[18],0.47
same,glycan array binding signal (z-score),[19],-0.212
same,glycan array binding signal (z-score),[20],0.728
same,glycan array binding signal (z-score),[21],0.327
same,glycan array binding signal (z-score),[22],0.716
same,glycan array binding signal (z-score),[23],2.49
same,glycan array binding signal (z-score),[24],0.97
same,glycan array binding signal (z-score),[25],-1.38
same,glycan array binding signal (z-score),[26],0.127
same,glycan array binding signal (z-score),[27],-1.64
same,glycan array binding signal (z-score),Neu5Ac(b2-6)GalNAc,-0.138
same,glycan array binding signal (z-score),[28],-0.71
same,glycan array binding signal (z-score),[29],1.04
same,glycan array binding signal (z-score),[30],0.314
same,glycan array binding signal (z-score),[31],-0.444
same,glycan array binding signal (z-score),[32],0.091
same,glycan array binding signal (z-score),Neu5Gc(a2-3)Gal(b1-4)Glc,-1.28
same,glycan array binding signal (z-score),[33],-0.533
same,glycan array binding signal (z-score),[34],1.29
same,glycan array binding signal (z-score),[35],0.216
same,glycan array binding signal (z-score),[36],0.137
same,glycan array binding signal (z-score),Neu5Gc(a2-6)GalNAc,-0.261
same,glycan array binding signal (z-score),[37],0.52
same,glycan array binding signal (z-score),[38],1.87
same,glycan array binding signal (z-score),[39],-2.09
same,glycan array binding signal (z-score),[40],-1.45
same,glycan array binding signal (z-score),[41],-0.009

# 4 entries picked at random from those above, as already listed:
binder,measurement,setting,value
B1,glycan array binding signal (z-score),[24],0.97
same,glycan array binding signal (z-score),[14],0.539
same,glycan array binding signal (z-score),[11],-1.52
same,glycan array binding signal (z-score),[38],1.87
